Assay [1] has as its target T1, GAL4 BD-fused full-length AtC3H59/ZFWD3 (Arabidopsis thaliana) (UniProt Q9FKR9).
T1 sequence: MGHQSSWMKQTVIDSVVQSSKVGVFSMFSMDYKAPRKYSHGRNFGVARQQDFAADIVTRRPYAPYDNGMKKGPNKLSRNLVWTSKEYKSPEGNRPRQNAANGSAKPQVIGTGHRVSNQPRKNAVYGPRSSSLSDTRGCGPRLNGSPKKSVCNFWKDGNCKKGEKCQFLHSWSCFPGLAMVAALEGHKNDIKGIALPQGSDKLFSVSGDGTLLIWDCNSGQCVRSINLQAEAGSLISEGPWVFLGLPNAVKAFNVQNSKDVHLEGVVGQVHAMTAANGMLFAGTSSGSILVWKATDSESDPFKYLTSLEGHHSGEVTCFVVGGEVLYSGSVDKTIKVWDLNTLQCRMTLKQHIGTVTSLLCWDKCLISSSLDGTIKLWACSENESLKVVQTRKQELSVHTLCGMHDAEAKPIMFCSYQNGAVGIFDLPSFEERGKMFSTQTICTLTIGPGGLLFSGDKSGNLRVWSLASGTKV
Put plainly: two-hybrid; GAL4 BD fusions (pBD-GAL4) and GAL4 AD fusions (pGADT7) co-transformed into yeast strain YD116 (GAL1::URA3, UAS_GAL4::lacZ); growth on SM-Trp/-Leu/-Ura at 30 °C and quantitative β-galactosidase ONPG assay.

Assay [2] concerns the target T2, Full-length AtC3H59 fused to the C-terminal region of YFP (Arabidopsis thaliana) (UniProt Q9FKR9).
T2 sequence: T1 sequence
Description: split reporter; BiFC with split YFP, transient expression in Arabidopsis protoplasts; YFP signals in the nucleus.

No constants are given. Whether binding was seen depends on the method and setting. Binding calls can cover weak binding; strength is not graded here. Tags and fused reporters may be left off the sequences shown. For some assays here: Binding seen in cells or lysates may run through a third protein.

Take “GAL4 AD-fused full-length Desi1 (Arabidopsis thaliana)”: in assay [1], the binding result is given as “binds”.

For the substance “Full-length Desi1 fused to the N-terminal region of YFP (Arabidopsis thaliana)”, the binding result in assay [2] is reported as “binds”.
